Experimental data as given in publication PMC12914539.
Results are given in words; binding and its absence hold for the method and conditions named. In cells and extracts the contact can be indirect. Some results given as binding are weak or reduced against the parent protein; the word gives no strength.

Sequences of proteins named here, by UniProt entry; tags and fusion partners are left off.
UniProt P30051: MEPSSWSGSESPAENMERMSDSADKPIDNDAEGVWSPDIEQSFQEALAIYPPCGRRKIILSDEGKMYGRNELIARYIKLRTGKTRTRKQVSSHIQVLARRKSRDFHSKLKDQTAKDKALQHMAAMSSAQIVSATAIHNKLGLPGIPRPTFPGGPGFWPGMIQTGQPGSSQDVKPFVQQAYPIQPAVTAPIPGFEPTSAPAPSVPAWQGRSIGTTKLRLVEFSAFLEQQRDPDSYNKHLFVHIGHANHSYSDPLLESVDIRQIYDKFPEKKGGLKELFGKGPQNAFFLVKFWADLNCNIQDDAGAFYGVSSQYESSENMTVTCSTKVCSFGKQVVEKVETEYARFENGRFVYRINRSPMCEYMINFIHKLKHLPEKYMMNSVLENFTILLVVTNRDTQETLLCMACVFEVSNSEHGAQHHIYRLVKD
UniProt P46938: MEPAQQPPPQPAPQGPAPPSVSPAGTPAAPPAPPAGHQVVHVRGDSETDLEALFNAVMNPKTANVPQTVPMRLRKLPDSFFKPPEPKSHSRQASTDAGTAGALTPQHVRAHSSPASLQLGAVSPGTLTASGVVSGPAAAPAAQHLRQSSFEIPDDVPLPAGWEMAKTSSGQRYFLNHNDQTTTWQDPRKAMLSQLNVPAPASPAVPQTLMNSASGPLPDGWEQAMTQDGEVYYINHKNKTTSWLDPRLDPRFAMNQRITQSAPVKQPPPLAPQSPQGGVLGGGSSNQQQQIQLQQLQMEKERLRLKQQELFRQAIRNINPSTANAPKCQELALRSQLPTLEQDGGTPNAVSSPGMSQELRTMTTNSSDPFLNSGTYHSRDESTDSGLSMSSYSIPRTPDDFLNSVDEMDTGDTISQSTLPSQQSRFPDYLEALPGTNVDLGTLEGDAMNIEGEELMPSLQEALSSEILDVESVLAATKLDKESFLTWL

Target: TEAD1 (UniProt P30051)
Assay: co-IP; co-IP of TEAD1 and YAP1, with and without rNRG4 treatment; cells and bait not stated

binding: binds
Substance: YAP1 (from UniProt P46938 1-488)
